The record followed here is doi:10.1101/431023.

These are yes or no findings as the source states them, for the method shown. In cells and extracts the contact can be indirect. A yes stands for co-enrichment or nearness to the bait. Other partners may have been found. Where a sequence is shown, tags or fusion partners need not be part of it.

The target of experiment [1] is T1, 3xFLAG-BirA*-tagged TCF7L1 at the endogenous TCF7L1 locus (mouse (endogenous in mESCs)) (UniProt Q9Z1J1).
T1 sequence: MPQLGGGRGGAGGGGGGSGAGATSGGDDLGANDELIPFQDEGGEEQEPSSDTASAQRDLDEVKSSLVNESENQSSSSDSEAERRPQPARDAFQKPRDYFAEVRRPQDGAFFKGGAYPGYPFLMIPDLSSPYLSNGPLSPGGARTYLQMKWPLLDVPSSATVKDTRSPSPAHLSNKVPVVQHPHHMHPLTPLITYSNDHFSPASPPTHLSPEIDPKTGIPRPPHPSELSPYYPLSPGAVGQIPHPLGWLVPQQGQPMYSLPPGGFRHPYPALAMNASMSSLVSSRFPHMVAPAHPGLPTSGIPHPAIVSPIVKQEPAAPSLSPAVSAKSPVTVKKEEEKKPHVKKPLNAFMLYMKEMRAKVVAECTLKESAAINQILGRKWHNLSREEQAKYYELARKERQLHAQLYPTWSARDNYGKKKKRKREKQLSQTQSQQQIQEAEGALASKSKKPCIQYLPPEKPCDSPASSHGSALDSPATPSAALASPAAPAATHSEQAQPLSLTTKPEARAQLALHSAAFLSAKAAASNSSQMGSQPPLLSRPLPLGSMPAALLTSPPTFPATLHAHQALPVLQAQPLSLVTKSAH
Kind of experiment: proximity labelling.

The target in experiment [2] is T2, dox-inducible 3xFLAG-BirA*-tagged TCF7L1 in the Rosa26 locus (UniProt Q9Z1J1).
T2 sequence: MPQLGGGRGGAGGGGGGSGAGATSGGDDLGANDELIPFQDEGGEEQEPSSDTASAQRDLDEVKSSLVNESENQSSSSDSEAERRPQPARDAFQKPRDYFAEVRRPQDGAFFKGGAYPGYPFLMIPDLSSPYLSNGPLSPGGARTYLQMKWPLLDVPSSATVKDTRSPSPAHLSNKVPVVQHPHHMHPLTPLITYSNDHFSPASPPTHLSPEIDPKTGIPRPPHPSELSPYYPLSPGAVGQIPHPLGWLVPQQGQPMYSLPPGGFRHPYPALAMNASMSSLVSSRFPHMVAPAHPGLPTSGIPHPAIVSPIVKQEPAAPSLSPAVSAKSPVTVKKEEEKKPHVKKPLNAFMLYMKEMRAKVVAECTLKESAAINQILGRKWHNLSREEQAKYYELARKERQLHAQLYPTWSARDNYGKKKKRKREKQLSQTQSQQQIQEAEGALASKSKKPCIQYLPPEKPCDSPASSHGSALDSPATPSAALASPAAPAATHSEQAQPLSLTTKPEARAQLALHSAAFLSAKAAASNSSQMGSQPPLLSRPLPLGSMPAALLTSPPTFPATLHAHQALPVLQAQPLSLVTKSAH
Kind of experiment: proximity labelling.

B1: CPEB4 (protein, UniProt Q7TN98 1-729)
chain: MGDYGFGVLVQSNTGNKSAFPVRFHPHLQPPHHHQNATPNPAAFINNNTAANGSSAGSAWLFPAPATHNIQDEILGSEKAKSQQQEQQDPLEKQQLSPSPGQEAGILPETEKAKAEENPGDSSSENSNGKEKLRIESPVLTGFDYQEATGLGTSTQPLTSSASSLTGFSNWSAAIAPSSSTIINEDASFFHQGGVPGASANNGALLFQNFPHHVSPGFGGSFSPQIGPLSQHHPHHPHFQHHHSQHQQQRRSPASPHPPPFTHRSAAFNQLPHLANNLNKPPSPWSSYQSPSPTPSSSWSPGGGGYGGWGASQGRDHRRGLNGGITPLNSISPLKKNFASNHIQLQKYARPSSAFAPKSWMEDSLNRADNIFPFPERPRTFDMHSLESSLIDIMRAENDSIKGRLNYSYPGSDSSLLINARTYGRRRGQSSLFPMEDGFLDDGRGDQPLHSGLGSPHCFTHQNGERVERYSRKVFVGGLPPDIDEDEITASFRRFGPLIVDWPHKAESKSYFPPKGYAFLLFQDESSVQALIDACIEEDGKLYLCVSSPTIKDKPVQIRPWNLSDSDFVMDGSQPLDPRKTIFVGGVPRPLRAVELAMIMDRLYGGVCYAGIDTDPELKYPKGAGRVAFSNQQSYIAAISARFVQLQHGEIDKRVEVKPYVLDDQLCDECQGARCGGKFAPFFCANVTCLQYYCEYCWAAIHSRAGREFHKPLVKEGGDRPRHISFRWN
Take B1: in experiment [1], the binding result was “binds”.

B2: ZFP281 (protein, UniProt Q99LI5 1-893)
chain: MKIGSGFLSGGGGPSSSGGSGSGGSSGSASGGSGGGRRAEMEPTFPQSMVMFNHRLPPVTSFTRPAGTAAPPPQCVLSSSTSAAPAAEPPPPPAPDMTFKKEPAASAAAFPSQRTSWGFLQSLVSIKQEKPADPEEQPSHHHHHHHHYGGLFAGAEERSPGLGGGEGGSHGVIQDLSLLHQHAQQQPAQHHRDVLLSSGSRTDEHGNQEPKQDANVKKAKRPKPESQGIKAKRKPSASSKPLVGEGEGAVLSPSQKPHICDHCSAAFRSSYHLRRHVLIHTGERPFQCSQCSMGFIQKYLLQRHEKIHSREKPFGCDQCSMKFIQKYHMERHKRTHSGEKPYKCDTCQQYFSRTDRLLKHRRTCGEAIAKGAASAEPGSSNHNSMGNLAVLSQGNTSSSRRKSKSKSIAIENKEHKTGKTNESQMSNNINMQSYSVEMPTVSTSGSIIGTGIDELQKRVPKLIFKKGSRKNADKSYLNFVSPLPDVVGQKSLSGKPGGSLGIVSNNSVETISLLQSTSGKQGPISSNYDDAMQFSKKRRYLPTASSNSAFSINVGHMVSQQSVIQSAGVSVLDNEAPLSLIDSSALNAEIKSCHDKSGIPDEVLQSILDQYSGKSETQKEDPFNLTEPRVDLHTSGEHSELVQEENLSPGTQTPSNDKTSMLQEYSKYLQQAFEKSTNAGFTLGHGFQFVSLSSPLHNHTLFPEKQIYTTSPLECGFGQSVTSVLPSSLPKPPFGMLFGSQPGLYLSALDATHQQLTPSQELDDLIDSQKNLETSSAFQSSSQKLTSQKEQQKNLESSTSFQIPSQELASQIDPQKDIEPRTTYQIENFAQAFGSQFKSGSRVPMTFITNSNGEVDHRVRTSVSDFSGYTNMMSDVSEPCSTRVKTPTSQSYR
Consider B2, for which the binding result in experiment [2] is on record as “binds”.

B3: BCL9 (protein, UniProt Q9D219 1-1425)
chain: MHPSNPKVRSSPSGNTQSSPKSKQEVMVRPPTVMSPSGNPQLDSKFSNQGKPGGSASQSQPSPCDSKSGGHTPKALPGPGGSMGLKNGAGNGAKGKGKRERSISADSFDQRDPGTPNDDSDIKECNSADHIKSQESQHTPHSMTPSTATAPRSSTPSHGQTPAPEPISAQKTPAKVVYVFSTEMANKAAEAVLKGQVETIVSFHIQNISNSKSERSTAPLNTQIPTLRNDPKPLPQQPPAPANQDQNSSQNARLQPTPPIQAPAPKPTAAPRPLDRESPGVENKLIPPVGSPGSSTPLPPDGTGPNSTPNNRAVTPVSQGSNSSSADPKAPPPPPVSGGEPPTLGENPDGLSQEQLEHRERSLQTLRDIQRMLFPDEKEFTAGQTGGPQQNTGVLDGPQKKPDGPIQAMMSQSQSLGKGPGPRTDVGAPFGPQGHRDVPFSPDEMVPPNMSSQSGPIGPDHLDHMTPEQIAWLKLQQEFYEEKRRKQEQVVVQQCSLQDMMVHQHGPRGVVRGPPPPYQMAPGEGWAPGAEPFPDGINISHSLPPRGMAPHPNMPGSQMRLPGFAGMINSEMEGPNVPNPASRPGLSGVSWPDDVPKIPDGRNFPPGQGVFSGPGRGERFPNPQGLSEEMFQQQLAEKQLALPPGMSMEGIRPGMEMNRMIPGSQRHMEPGSNPIFPRIPVEGPLSPSRGDFPKGMPPQIGPGRELEFGMVPGGMKGEVNLNVNMGSSSQMIPQKMREAGAGPEEMMKLRPGSSEMLPAQQKMVPLPFGEHPQQEYGVGPRPFLPMSQGPGSNSGLRNLREPIGPDQRTNSRLSHMPPLPLNPSSNPTSLSTAPPVQRGLGRKPLDISVAGSQVHSPGINPLKSPTMHQVQSPMLGSPSGNLKSPQTPSQLAGMLAGPAAAASIKSPPVLGSAAASPVHLKSPSLPAPSPGWTSSPKPPLQSPGIPPNHKAPLTMASPAMLGSVESGGPPPPTASQPASVNIPGSLPSSTPYPMPPEPTLSQNPLSIMMSRMSKFAMPSSTPLYHDAIKTVASSDDDSPPARSPNLPSMNSMPGMGINTQNPRISGPNPVVPMPTLSPMGMTQPLSHSNQMPSPNAMGPSIPPHGVPMGPGLMSHNPIMGHGSQEPPMVPQGRMGFPQGFPPVQSPPQQVPFPHNGPTGGQGNFPGGIGFPGEGPLGRPSNLPQSSADPALCKPGGPGAPDSFTVLGNSMPSVFTDPDLQEVIRPGATGIPEFDLSRIIPSEKPSQTLQYFPRGEVPGRKQPQGPGPGFSHMQGMMSDQAPRMGLALPGMGGPGPVGTPDIPLGTSPSMPGHNPMRPPAFLQQGMMGPHHRMMSPAQSTVPGPATLMTNPAAAVGMIPGKDRGPAGLYTHPGPVGSPGMMMSMQGMMGPQQNIMIPPQMRPRGMAADVGMGGFSQGPGNPGNMMF
Consider B3, for which the binding result in experiment [2] is “binds”.

B4: TRIM24 (protein, UniProt Q64127 1-1051)
chain: MEVAVEKAAAAAAPAGGPAAAAPSGENEAESRQGPDSESGGEASRLNLLDTCAVCHQNIQSRVPKLLPCLHSFCQRCLPAPQRYLMLTAPALGSAETPPPAPAPAPAPGSPAGGPSPFATQVGVIRCPVCSQECAERHIIDNFFVKDTTEVPSSTVEKSNQVCTSCEDNAEANGFCVECVEWLCKTCIRAHQRVKFTKDHTVRQKEEVSPEAVGVTSQRPVFCPFHKKEQLKLYCETCDKLTCRDCQLLEHKEHRYQFIEEAFQNQKVIIDTLITKLMEKTKYIKYTGNQIQNRIIEINQNQKQVEQDIKVAIFTLMVEINKKGKALLHQLESLAKDHRMKLMQQQQEVAGLSKQLEHVMHFSKWAVSSGSSTALLYSKRLITYRLRHLLRARCDASPVTNTTIQFHCDPSFWAQNIINLGSLVIEDKESQPQMPKQNPVVEQSSQPPGGLPSNQLSKFPTQISLAQLRLQHIQQQVMAQRQQVQRRPAPVGLPNPRMQGPIQQPSISHQHPPPRLINFQNHSPKPNGPVLPPYPQQLRYSPSQNVPRQTTIKPNPLQMAFLAQQAIKQWQISSVQAPPTTASSSSSTPSSPTITSAAGYDGKAFSSPMIDLSAPVGGSYNLPSLPDIDCSSTIMLDNIARKDTGVDHAQPRPPSNRTVQSPNSSVPSPGLAGPVTMTSVHPPIRSPSASSVGSRGSSGSSSKPAGADSTHKVPVVMLEPIRIKQENSGPPENYDFPVVIVKQESDEESRPQNTNYPRSILTSLLLNSSQSSASEETVLRSDAPDSTGDQPGLHQENSSNGKSEWSDASQKSPVHVGETRKEDDPNEDWCAVCQNGGELLCCEKCPKVFHLTCHVPTLTNFPSGEWICTFCRDLSKPEVDYDCDVPSHHSEKRKSEGLTKLTPIDKRKCERLLLFLYCHEMSLAFQDPVPLTVPDYYKIIKNPMDLSTIKKRLQEDYCMYTKPEDFVADFRLIFQNCAEFNEPDSEVANAGIKLESYFEELLKNLYPEKRFPKVEFRHEAEDCKFSDDSDDDFVQPRKKRLKSTEDRQLLK
In the case of B4, the binding result in experiment [2] is “binds”.
